# Measurements as given in patent US6663859B2, “Compositions for enhancing the immune response” (Bioenergy, Inc., priority 2000, dated 2003).
# Some results were stated once for a whole list of compounds, not compound by compound.
# Test system: HL-60 cells
# Assay: ATP determination in HL-60 cells
# Format: cell-based, human
# Details: HL-60 control about five μmoles per 10^9 cells
# Description: Determination of ATP was performed using a kit purchased from Sigma Diagnostics (St. Louis, Mo.) with slight modifications. 1.0 ml of 12% trichloroacetic acid (TCA) and 1.0 ml of prepared cell suspension (1×10^7 cells/ml) were combined, vortexed and placed on ice for five minutes. Tubes were then centrifuged (Jouann, at 2000×g for 8 minutes) to obtain a clear supernatant. The following reagents were then added into vials containing 0.3 mg NADH: 1.0 ml phosphoglyceraldehyde buffered solution, 1.5 ml water, and 0.15 ml cell supernatant. Samples were distributed into two tubes. One tube was used to obtain an initial spectrophotometric absorbance at 340 nm. Fifteen μl of GAPD/PGK enzyme mixture were added to the second tube and read after ten minutes. Changes in absorbance were calculated and results were expressed as μmol of ATP per 1×10^9 cells.
structure (smiles),measurement,value
"CC1=C(/C=C/C(C)=C/C=C/C(C)=C/C(=O)O)C(C)(C)CCC1 [RA, all-trans retinoic acid]",ATP concentration,below 4 μmoles per 10^9 cells
